The values below come from article PMC4676093.

Amino acid sequences for entries named in this document (tags omitted). A change or cut given only in a name is not applied to a line headed by its entry. Chains listed by the source or under a name are the forms on record and can include a tag or linker.
UniProt Q9NUM4: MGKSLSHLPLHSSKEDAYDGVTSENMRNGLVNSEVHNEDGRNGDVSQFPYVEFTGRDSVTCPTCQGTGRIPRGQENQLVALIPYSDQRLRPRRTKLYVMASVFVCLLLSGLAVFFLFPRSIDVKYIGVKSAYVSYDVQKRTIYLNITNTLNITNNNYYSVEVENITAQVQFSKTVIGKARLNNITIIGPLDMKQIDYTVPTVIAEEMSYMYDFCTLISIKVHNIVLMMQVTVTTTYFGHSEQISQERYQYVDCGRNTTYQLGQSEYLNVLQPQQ
Flag-tagged TMEM106B S185 variant (transmembrane protein 106B) (Q9NUM4, form named): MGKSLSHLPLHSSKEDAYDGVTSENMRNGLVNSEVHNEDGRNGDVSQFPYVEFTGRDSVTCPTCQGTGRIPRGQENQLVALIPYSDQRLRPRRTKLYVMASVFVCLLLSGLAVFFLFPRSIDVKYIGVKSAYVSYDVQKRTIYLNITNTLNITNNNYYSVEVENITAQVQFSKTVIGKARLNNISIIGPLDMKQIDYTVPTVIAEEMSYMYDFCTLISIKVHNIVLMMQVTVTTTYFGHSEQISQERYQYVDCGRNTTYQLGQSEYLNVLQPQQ
UniProt Q9UQN3: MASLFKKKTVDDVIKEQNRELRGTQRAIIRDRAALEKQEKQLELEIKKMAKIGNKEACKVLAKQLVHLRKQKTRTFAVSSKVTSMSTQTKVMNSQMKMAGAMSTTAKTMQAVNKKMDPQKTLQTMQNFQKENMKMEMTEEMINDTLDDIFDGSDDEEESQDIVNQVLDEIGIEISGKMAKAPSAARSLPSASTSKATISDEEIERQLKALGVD

In experiment [1] the target is Flag-tagged TMEM106B S185 variant (transmembrane protein 106B) (human) (UniProt Q9NUM4). Briefly: co-IP; HEK293T cells transfected with flag-tagged TMEM106B variants (alone, or with CHMP2B^Intron5-cMyc); lysis in 50 mM Tris-HCl pH 7.5, 150 mM NaCl, 1 % NP40, 0.5 % sodium deoxycholate; anti-FLAG antibody overnight at 4 °C, Protein G agarose; blots with anti-CHMP2B, anti-cMyc or anti-flag.

The target of experiment [2] is Flag-tagged TMEM106B T185 variant (transmembrane protein 106B) (human) (UniProt Q9NUM4). The description is as above.

No constants are given. Whether binding was seen depends on the method and setting. Binding seen in cells or lysates may run through a third protein. Some entries that bind do so weakly or less than the wild type.

As for “endogenous charged multivesicular body protein 2B (CHMP2B) (from UniProt Q9UQN3 1-213)”, the binding result in experiment [1] and in experiment [2] was “binds” in each case.
